Strings that start with PEPTIDE1 are HELM notation: dots part the residues, brackets hold end groups and non-standard residues.
Tests used:
[1] = Fmoc solid-phase peptide synthesis; HMP resin; conditions: whole synthesis, TFA salt
[2] = solid-phase peptide synthesis; conditions: whole synthesis, TFA salt

Row | Substance | final purity (method not given) [1] | final purity (method not given) [2]
1 | PEPTIDE1{A.T.P.A.K.K.A.A.A.T.P.A.K.K.A.A}$$$$V2.0 | greater than 95% | –
2 | PEPTIDE1{K.T.P.K.K.A.K.K.P.K.T.P.K.K.A.K.K.P}$$$$V2.0 | – | greater than 90%
3 | PEPTIDE1{P.K.K.K.R.K.V.[bAla].K.T.P.K.K.A.K.K.P.K.T.P.K.K.A.K.K.P}$$$$V2.0 | – | greater than 95%
4 | PEPTIDE1{P.K.K.K.R.K.V}$$$$V2.0 | – | greater than 95%
